According to publication PMC8508768, “Halting Tumor Progression via Novel Non-Hydroxamate Triazole-Based Mannich Bases MMP-2/9 Inhibitors; Design, Microwave-Assisted Synthesis, and Biological Evaluation” (International Journal of Molecular Sciences, 2021):

System: MDA-MB 231
Assay: MTT anticancer assay, breast cancer cells
Format: cell-based, human
Conditions: selectivity index: ratio of IC50 against normal (Wi-38) and cancer cells
Source text: [The source words this procedure for another cell line and reports this cell line under the same test.] All the newly synthesized derivatives were firstly screened for cytotoxic activities on normal lung fibroblasts (Wi-38) for evaluating their safety profiles.

Point of comparison: CN1CCN(Cn2nc(Cn3cc(-c4ccccc4)nn3)n(-c3ccccc3)c2=S)CC1 [Compound 13, 1-((4-Methylpiperazin-1-yl)methyl)-4-phenyl-3-((4-phenyl-1H-1,2,3-triazol-1-yl)methyl)-1H-1,2,4-triazole-5(4H)-thione], “MDA-MB 231 SI” value 1.562. Against it:
- CCn1c(Cn2cc(-c3ccccc3)nn2)nn(CN2CCCCC2)c1=S [Compound 10, 4-Ethyl-3-((4-phenyl-1H-1,2,3-triazol-1-yl)methyl)-1-(piperidin-1-ylmethyl)-1H-1,2,4-triazole-5(4H)-thione] — higher, 1.621
- CCn1c(Cn2cc(-c3ccccc3)nn2)nn(CN2CCOCC2)c1=S [Compound 12, 1-(Morpholinomethyl)-4-ethyl-3-((4-phenyl-1H-1,2,3-triazol-1-yl)methyl)-1H-1,2,4-triazole-5(4H)-thione] — higher, 2.395
- S=c1n(CN2CCOCC2)nc(Cn2cc(-c3ccccc3)nn2)n1-c1ccccc1 [Compound 11, 1-(Morpholinomethyl)-4-phenyl-3-((4-phenyl-1H-1,2,3-triazol-1-yl)methyl)-1H-1,2,4-triazole-5(4H)-thione] — lower, 0.745
- S=c1n(CN2CCCCC2)nc(Cn2cc(-c3ccccc3)nn2)n1-c1ccccc1 [Compound 9, 4-Phenyl-3-((4-phenyl-1H-1,2,3-triazol-1-yl)methyl)-1-(piperidin-1-ylmethyl)-1H-1,2,4-triazole-5(4H)-thione] — lower, 0.763
- CCn1c(Cn2cc(-c3ccccc3)nn2)nn(CN2CCN(C)CC2)c1=S [Compound 14, 1-((4-Methylpiperazin-1-yl)methyl)-4-ethyl-3-((4-phenyl-1H-1,2,3-triazol-1-yl)methyl)-1H-1,2,4-triazole-5(4H)-thione] — lower, 0.844
